Reference: US20190374627A1, “TARGET PEPTIDES FOR CANCER THERAPY AND DIAGNOSTICS” (priority 2016, published 2019)

Key:
Parameters in all cases: key: The presence of phosphopeptides in previously analyzed samples including leukemia, colorectal cancer, melanoma, ovarian cancer, breast cancer, and esophageal cancer is indicated by ✓
breast cancer = assay: Presence of the phosphopeptide in previously analyzed breast cancer samples
colorectal cancer = assay: Presence of the phosphopeptide in previously analyzed colorectal cancer samples
melanoma = assay: Presence of the phosphopeptide in previously analyzed melanoma samples
leukemia = assay: Presence of the phosphopeptide in previously analyzed leukemia samples
esophageal cancer = assay: Presence of the phosphopeptide in previously analyzed esophageal cancer samples

137 (RPFSPREAL; (4)...(4) The amino acid at this position is optionally phosphorylated; listed as Homo sapiens) [compound 137]
✓: Breast (breast cancer) | Colorectal (colorectal cancer) | Melanoma (melanoma) | Leukemia (leukemia) | Esophageal (esophageal cancer)

182 (RPRSPRQNSI; (4)...(4) The amino acid at this position is optionally phosphorylated; listed as Homo sapiens) [compound 182]
✓: Breast (breast cancer) | Colorectal (colorectal cancer) | Melanoma (melanoma) | Leukemia (leukemia) | Esophageal (esophageal cancer)

216 (TPRSPPLGL; (4)...(4) The amino acid at this position is optionally phosphorylated; listed as Homo sapiens) [compound 216]
✓: Breast (breast cancer) | Colorectal (colorectal cancer) | Melanoma (melanoma) | Leukemia (leukemia) | Esophageal (esophageal cancer)

105 (KPRSPVVEL; (4)...(4) The amino acid at this position is optionally phosphorylated; listed as Homo sapiens) [compound 105]
✓: Breast (breast cancer) | Colorectal (colorectal cancer) | Melanoma (melanoma) | Leukemia (leukemia) | Esophageal (esophageal cancer)

205 (SPFKRQLSL; (8)...(8) The amino acid at this position is optionally phosphorylated; listed as Homo sapiens) [compound 205]
✓: Breast (breast cancer) | Colorectal (colorectal cancer) | Melanoma (melanoma) | Esophageal (esophageal cancer)

156 (RPRARSVDAL; (6)...(6) The amino acid at this position is optionally phosphorylated; listed as Homo sapiens) [compound 156]
✓: Breast (breast cancer) | Colorectal (colorectal cancer) | Melanoma (melanoma) | Esophageal (esophageal cancer)

111 (LPASPRARL; (4)...(4) The amino acid at this position is optionally phosphorylated; listed as Homo sapiens) [compound 111]
✓: Breast (breast cancer) | Colorectal (colorectal cancer) | Melanoma (melanoma) | Leukemia (leukemia) | Esophageal (esophageal cancer)

166 (RPRPVSPSSL; (6)...(6) The amino acid at this position is optionally phosphorylated; listed as Homo sapiens) [compound 166]
✓: Breast (breast cancer) | Colorectal (colorectal cancer) | Melanoma (melanoma) | Leukemia (leukemia) | Esophageal (esophageal cancer)

193 (RPVSPFQEL; (4)...(4) The amino acid at this position is optionally phosphorylated; listed as Homo sapiens) [compound 193]
✓: Breast (breast cancer) | Colorectal (colorectal cancer) | Melanoma (melanoma) | Leukemia (leukemia) | Esophageal (esophageal cancer)
